Laboratory results from PMC8964761.

Protein sequences, listed by entry. Tags and fused reporters are not part of them. Lines headed by an entry give the natural chain unless they say otherwise; changes in a name come on top. Residues count along the entry.
UniProt Q03405: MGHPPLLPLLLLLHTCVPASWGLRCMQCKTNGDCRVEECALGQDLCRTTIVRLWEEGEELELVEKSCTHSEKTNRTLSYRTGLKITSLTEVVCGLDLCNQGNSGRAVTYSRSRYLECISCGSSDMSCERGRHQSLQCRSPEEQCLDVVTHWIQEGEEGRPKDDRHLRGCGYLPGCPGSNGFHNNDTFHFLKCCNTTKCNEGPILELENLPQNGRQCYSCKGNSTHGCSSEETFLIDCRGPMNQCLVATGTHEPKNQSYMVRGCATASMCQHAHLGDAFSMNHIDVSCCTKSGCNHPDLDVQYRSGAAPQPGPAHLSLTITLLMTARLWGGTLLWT
UniProt P01042, residues 19-644: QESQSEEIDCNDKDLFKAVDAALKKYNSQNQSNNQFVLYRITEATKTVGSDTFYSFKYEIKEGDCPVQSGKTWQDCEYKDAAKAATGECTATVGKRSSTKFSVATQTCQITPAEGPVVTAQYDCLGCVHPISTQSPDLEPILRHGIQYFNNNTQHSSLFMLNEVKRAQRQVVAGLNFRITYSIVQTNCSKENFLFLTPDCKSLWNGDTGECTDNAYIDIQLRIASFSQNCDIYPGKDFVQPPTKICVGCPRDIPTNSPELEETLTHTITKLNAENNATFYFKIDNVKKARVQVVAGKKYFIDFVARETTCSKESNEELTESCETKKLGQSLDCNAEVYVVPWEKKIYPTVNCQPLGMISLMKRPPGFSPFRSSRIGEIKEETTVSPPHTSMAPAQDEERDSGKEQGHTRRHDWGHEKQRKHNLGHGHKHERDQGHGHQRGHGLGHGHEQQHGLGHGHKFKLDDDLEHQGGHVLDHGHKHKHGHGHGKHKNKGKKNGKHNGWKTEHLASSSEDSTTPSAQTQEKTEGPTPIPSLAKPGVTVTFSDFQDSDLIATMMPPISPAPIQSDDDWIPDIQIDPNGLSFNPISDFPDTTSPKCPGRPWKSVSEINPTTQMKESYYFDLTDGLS

B1: streptococcal surface dehydrogenase (SDH) (protein, UniProt P0C0G7 1-336)
chain: MVVKVGINGFGRIGRLAFRRIQNIEGVEVTRINDLTDPNMLAHLLKYDTTQGRFDGTVEVKEGGFEVNGNFIKVSAERDPENIDWATDGVEIVLEATGFFAKKEAAEKHLHANGAKKVVITAPGGNDVKTVVFNTNHDILDGTETVISGASCTTNCLAPMAKALHDAFGIQKGLMTTIHAYTGDQMILDGPHRGGDLRRARAGAANIVPNSTGAAKAIGLVIPELNGKLDGAAQRVPVPTGSVTELVVTLDKNVSVDEINAAMKAASNDSFGYTEDPIVSSDIVGVSYGSLFDATQTKVMEVDGSQLVKVVSWYDNEMSYTAQLVRTLEYFAKIAK

Target: dimeric suPAR (human) (UniProt Q03405)
Assay: pull-down; monomeric or dimeric suPAR held on ATN658-coated Protein A Dynabeads; ligands at 0.5 mg/mL for 10 min in PBST, room temperature; eluted with 50 mM Glycine pH 2.8, SDS-PAGE; both purified

Molecule | binding
high molecular weight kininogen (HMWK) (from UniProt P01042 19-644) (ligand) | binds
B1 | binds

Results are given in words; binding and its absence hold for the method and conditions named. A result given as binding can be weak or reduced; the word gives no strength.
